No constants are given. Whether binding was seen depends on the method and setting. Some results given as binding are weak or reduced against the parent protein; the word gives no strength.
T1: Xenopus laevis XCAP-H (Xenopus laevis) (UniProt O13067)
T1 sequence: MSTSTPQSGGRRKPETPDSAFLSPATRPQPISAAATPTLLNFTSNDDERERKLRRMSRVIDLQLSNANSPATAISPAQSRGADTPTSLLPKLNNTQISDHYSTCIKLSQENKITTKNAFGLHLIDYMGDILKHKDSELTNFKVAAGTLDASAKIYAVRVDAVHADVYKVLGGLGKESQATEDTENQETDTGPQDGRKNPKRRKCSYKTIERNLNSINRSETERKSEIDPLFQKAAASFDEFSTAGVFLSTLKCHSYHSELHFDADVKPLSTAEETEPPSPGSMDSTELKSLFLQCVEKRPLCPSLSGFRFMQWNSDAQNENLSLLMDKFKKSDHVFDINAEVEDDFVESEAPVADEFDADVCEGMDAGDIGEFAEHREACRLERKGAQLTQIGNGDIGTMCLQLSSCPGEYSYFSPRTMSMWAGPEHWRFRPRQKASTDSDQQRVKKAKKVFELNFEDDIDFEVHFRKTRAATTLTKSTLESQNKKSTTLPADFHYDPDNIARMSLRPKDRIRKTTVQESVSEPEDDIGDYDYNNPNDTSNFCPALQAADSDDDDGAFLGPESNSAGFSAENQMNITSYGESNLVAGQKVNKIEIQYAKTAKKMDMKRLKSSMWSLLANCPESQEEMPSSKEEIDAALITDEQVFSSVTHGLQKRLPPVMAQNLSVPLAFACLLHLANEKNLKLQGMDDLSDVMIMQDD

Amino acid sequences for entries named in this document (tags omitted).
UniProt P50532: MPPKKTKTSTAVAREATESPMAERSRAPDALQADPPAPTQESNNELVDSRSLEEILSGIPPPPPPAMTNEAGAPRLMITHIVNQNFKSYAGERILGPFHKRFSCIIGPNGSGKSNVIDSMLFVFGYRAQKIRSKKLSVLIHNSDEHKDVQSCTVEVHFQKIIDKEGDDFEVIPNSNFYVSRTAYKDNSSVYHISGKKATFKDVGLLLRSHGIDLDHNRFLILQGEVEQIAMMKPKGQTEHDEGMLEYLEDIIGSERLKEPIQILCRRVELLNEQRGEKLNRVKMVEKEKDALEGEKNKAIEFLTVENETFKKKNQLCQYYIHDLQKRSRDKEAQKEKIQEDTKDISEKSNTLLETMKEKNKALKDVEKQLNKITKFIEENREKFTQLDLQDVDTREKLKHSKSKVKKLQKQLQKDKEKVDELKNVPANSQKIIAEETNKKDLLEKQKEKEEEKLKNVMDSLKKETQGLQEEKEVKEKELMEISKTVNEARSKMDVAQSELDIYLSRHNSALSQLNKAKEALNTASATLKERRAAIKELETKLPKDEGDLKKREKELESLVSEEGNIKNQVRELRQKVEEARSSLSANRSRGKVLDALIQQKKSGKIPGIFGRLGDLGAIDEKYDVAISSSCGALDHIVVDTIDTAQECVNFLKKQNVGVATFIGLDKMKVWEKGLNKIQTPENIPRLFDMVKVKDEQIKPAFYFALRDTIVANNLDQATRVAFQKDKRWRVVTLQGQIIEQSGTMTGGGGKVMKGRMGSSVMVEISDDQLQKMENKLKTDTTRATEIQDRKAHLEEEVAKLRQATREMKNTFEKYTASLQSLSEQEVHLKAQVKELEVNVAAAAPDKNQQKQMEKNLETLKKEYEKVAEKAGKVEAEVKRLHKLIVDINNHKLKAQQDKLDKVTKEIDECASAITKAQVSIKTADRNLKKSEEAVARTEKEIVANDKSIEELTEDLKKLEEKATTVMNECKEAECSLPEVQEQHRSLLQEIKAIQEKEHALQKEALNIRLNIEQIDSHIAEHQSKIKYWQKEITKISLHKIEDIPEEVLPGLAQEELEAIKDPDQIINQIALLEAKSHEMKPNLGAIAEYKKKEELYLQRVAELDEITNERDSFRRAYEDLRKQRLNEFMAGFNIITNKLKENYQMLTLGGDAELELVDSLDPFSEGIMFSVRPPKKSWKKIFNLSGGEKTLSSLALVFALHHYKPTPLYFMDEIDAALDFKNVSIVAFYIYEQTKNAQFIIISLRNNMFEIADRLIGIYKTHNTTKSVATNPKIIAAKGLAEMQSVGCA
UniProt Q9YHY6: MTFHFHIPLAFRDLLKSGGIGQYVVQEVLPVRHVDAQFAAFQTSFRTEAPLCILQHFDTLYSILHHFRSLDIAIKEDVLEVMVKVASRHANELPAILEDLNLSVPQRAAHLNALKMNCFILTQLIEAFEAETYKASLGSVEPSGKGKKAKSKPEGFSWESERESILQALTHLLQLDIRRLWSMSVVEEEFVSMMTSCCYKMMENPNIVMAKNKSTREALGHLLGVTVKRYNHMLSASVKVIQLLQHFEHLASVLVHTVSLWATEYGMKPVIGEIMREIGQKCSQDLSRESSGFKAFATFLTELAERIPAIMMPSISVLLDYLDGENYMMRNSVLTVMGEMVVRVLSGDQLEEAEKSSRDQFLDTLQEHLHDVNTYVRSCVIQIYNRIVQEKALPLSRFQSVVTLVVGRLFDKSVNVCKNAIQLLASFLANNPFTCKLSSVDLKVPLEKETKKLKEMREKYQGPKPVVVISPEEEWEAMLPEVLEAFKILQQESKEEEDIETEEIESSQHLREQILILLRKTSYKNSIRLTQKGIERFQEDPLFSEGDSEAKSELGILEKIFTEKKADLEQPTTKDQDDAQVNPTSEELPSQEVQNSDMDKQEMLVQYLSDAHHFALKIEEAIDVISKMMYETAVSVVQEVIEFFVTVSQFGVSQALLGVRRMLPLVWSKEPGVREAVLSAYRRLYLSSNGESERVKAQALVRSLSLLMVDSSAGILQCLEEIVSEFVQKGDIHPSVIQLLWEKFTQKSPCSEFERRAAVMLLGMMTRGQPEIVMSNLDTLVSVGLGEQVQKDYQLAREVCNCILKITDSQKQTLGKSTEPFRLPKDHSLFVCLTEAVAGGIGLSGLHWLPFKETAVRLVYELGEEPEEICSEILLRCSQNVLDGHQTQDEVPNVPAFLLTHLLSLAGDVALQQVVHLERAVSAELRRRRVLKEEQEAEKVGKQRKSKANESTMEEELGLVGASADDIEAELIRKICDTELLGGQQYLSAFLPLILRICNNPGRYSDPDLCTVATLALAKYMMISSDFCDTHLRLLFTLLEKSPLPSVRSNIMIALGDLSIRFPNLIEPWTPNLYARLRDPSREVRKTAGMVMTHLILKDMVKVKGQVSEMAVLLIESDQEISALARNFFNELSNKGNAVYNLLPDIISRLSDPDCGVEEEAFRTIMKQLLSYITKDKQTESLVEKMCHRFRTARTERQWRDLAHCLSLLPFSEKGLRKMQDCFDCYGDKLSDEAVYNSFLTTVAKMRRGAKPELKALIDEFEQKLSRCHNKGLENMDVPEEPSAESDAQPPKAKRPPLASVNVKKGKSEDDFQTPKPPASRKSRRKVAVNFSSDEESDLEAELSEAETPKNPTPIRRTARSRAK
UniProt P50533: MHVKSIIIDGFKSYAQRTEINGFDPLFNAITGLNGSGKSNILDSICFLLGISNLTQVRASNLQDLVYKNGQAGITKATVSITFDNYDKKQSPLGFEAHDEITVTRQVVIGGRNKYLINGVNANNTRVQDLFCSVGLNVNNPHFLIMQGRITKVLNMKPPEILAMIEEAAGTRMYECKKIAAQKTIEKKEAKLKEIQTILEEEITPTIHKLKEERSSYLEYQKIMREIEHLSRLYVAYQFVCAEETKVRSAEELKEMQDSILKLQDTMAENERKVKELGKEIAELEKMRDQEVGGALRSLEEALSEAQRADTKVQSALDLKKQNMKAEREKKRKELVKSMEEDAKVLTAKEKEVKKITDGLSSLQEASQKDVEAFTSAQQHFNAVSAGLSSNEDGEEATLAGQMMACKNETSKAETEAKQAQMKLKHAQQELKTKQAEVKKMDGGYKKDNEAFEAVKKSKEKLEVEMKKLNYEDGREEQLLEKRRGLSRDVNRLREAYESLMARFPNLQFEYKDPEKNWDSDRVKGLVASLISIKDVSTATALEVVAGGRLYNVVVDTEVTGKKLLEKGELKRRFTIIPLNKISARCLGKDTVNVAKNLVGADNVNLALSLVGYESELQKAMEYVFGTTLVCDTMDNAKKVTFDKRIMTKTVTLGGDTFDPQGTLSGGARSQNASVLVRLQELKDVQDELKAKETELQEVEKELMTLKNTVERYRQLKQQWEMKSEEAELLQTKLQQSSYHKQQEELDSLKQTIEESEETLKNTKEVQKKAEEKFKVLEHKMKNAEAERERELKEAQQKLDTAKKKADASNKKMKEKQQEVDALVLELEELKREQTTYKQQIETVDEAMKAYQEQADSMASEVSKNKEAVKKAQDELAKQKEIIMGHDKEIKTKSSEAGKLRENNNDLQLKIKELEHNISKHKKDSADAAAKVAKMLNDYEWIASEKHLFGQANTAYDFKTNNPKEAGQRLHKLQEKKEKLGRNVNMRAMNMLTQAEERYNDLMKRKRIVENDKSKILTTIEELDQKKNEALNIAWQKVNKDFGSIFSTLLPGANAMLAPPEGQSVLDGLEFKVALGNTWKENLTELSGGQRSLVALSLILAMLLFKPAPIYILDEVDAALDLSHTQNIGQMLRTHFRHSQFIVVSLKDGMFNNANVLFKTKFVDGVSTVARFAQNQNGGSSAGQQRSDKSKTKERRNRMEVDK

B1: Xenopus laevis XCAP-G (protein, UniProt Q9YHB5 1-1034)
chain: MVKEGKAMEIKEAFDLSQKAHQNHAKLVSSLRAAYNKTEDKSIFLEEFIHFLKFPLIVYRREPAVERVMDFVAKFVTSFHNSGGENEEEADEENSPVNCLFNFLLQSHGASSMAVRFRVCQLINKLLVNLPENAQIDDDLFDKIHDAMLIRLKDRVPNVRIQAVLALARLQDPSDPDCPVSNAYVHLLENDSNPEVRRAVLTCIAPSAKSLPKIVGRTMDVKEPVRKLAYQVLSEKVHIRALTIAQRVKLLQQGLNDRSAAVKDVIQKKLIQAWLQYSEGDVLDLLHRLDVENSPEVSLSALNALFSVSPVGELVQNCKNLDERKLIPVETLTPENVLYWRALCEHLKSKGDEGEAALENILPEPAVYARYLSSYLQTLPVLSEDQRADMTKIEDLMTKEFIGQQLILTIGCLDTSEEGGRKRLLAVLQEILVMQNTPTSLISSLAELLLFVLKDDDKRIQTVAEIISELREPIVTVDNPKDAAQSRKLQLKLADVKVQLIEAKQALEDSLTNEDYSRASELKEKVKELESLKTQLIKEAEEPEMKEIRVEKNDPETLLKCLIMCNELLKHLSLSKGLGGTLNEICESLILPGITNVHPSVRNMAVLCIGCCALQNKDFARQHLPLLLQILQLDEVKVKNSALNAVFDMLLLFGMDILKSKPTNPDDSQCKAQENADEDISEQEKPGSVDENLTNEEVQEETATVNGILHLFSGFLDSEIAEIRTETAEGLVKLMFSGRLISAKLLSRLILLWYNPVTEEDTKLRHCLGVFFPIFAYSCRSNQECFAEAFLPTLQTLFNAPASSPLADVDVANVAELLVDLTRPSGLNPQNKQSQDYQAAMVHDGLAIKICNEILKDPTAPDVRIYAKALCSLELSRENSTDLLPLLDCAVEDVTDKVCERAIEKVRSQLRSGREEHRVSKETEPQVSKETEDRTNLQENEEGKQKDEANCDENTDTVKEKAARGKATKGRRKGPAAAATRRKASKAEEAEAEMERQEESQCVPVNTRPSRRAKTAALEKTKKNLSKLLNEEAN

biological target: T1, Xenopus laevis XCAP-H (Xenopus laevis); test: affinity co-purification; five condensin I subunits co-expressed in High-Five cells; purified on a Strep-Tactin column by the Twin-Strep tag of XCAP-H, then by SEC (Superose 6 increase)

Row | Molecule | binding
1 | Xenopus laevis XCAP-C/Smc4 (from UniProt P50532 1-1290) | binds
2 | Xenopus laevis XCAP-D2 (from UniProt Q9YHY6 1-1364) | binds
3 | Xenopus laevis XCAP-E/Smc2 (from UniProt P50533 1-1203) | binds
4 | B1 | binds

— publication PMC10962838
